The experiment is described as follows: qHTS Assay for Lipid Storage Modulators in Drosophila S3 Cells.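 On cell number change: cells counted by Cell Tracker Red CMTPX staining in the red channel.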 The following applies: BODIPY lipid droplet fluorescence, 18-24 h; for cell number change: measured here: cell count max response, cells fed with added oleic acid. Summed up:
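Drosophila S3 cells loaded with oleic acid (400 uM, as added) and compounds at several concentrations; lipid droplets imaged by 488-nm laser-scanning cytometry, 500–530 nm intensity and object ratio to cell channel. Percent activity normalized to 20 uM Triacsin C.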

[1] abbreviates: measured here: cell number channel AC50, cells fed with added oleic acid.
The mark [2] stands for this setting: measured here: lipid fluorescence (Fed channel) AC50, cells fed with added oleic acid.

The list shows a part of the results. Further columns of the screen follow, without active or inactive calls. Compounds called inactive in the main read-out are mostly missing here. The note in brackets gives the kind of curve behind each potency; many fits are weak.

As to `O=C(COc1c(Br)cc(Br)c2cccnc12)N1CCc2ccccc2C1`, the cell number change is -7.64%. Under setting [1], the AC50 was 2.91 µM [rising, single point]. Under setting [2], the AC50 is 3.66 µM [rising, partial curve].

Take `CC(C)CC(=O)Nc1sc2c(c1C#N)CC(C)(C)NC2(C)C`: the cell number change was 17.9%.

For `CC(=O)c1cccc(OCC(O)CN2CCN(C(=O)c3ccco3)CC2)c1` (stereo unspecified), the cell number change stood at 15.2%. Moreover, under setting [2], the AC50 is 6.51 µM [falling, single point].

For the compound `Cc1ccccc1C(=O)NNC(=S)NC(=O)c1ccc(Cl)cc1Cl`, the cell number change turned out to be 35.1%. Also, the AC50 under setting [1] was 3.66 µM [rising, full curve, poor fit]. Further, under setting [2], the AC50 was 20.6 µM [rising, partial curve].

For the compound `CN(C)c1ccc(CNc2nc(-c3ccccc3)nn2S(C)(=O)=O)cc1`, the cell number change was -3.34%.

As to `CC(=O)c1ccc(S(=O)(=O)NCCC(=O)OCC(=O)N(Cc2ccccc2)C(C)(C)C)cc1`, the cell number change is -3.24%. For the same compound, the AC50 under setting [2] was 25.9 µM [rising, partial curve, poor fit].

Turning to `CCOC(=O)c1ccc(Nc2nc(C(=O)OCC)nc3ccccc23)cc1`, the AC50 under setting [2] was 0.461 µM [falling, full curve, poor fit].

Consider `Cc1ccc(/C=C2\CCn3c2nc2cc(C(=O)O)ccc2c3=O)c(C)c1`, for which the cell number change was 14.1%.

For `C=CCn1c(CCCNC(=O)c2ccccc2OC)nc2ccccc21`, the cell number change was -40.2%. Besides, the AC50 under setting [1] was 25.9 µM [falling, single point]. Besides, the AC50 under setting [2] was 16.4 µM [falling, partial curve, poor fit].

Take `CNC(=O)CN(c1ccc(C(C)C)cc1)S(C)(=O)=O`: the cell number change was determined as 30.5%. Under setting [1], the AC50 is 4.61 µM [rising, full curve]. In addition, the AC50 under setting [2] was 0.164 µM [rising, full curve].

Turning to `Cc1ccc(C)c(CN2C(=O)c3ccccc3S(=O)(=O)c3ccc(C(=O)N4CCN(C)CC4)cc32)c1`, the cell number change was -26.5%.

Regarding `CCN(CC(=O)Nc1ccc2c(c1)OCCO2)S(=O)(=O)c1ccc(F)cc1`, the cell number change worked out at 10.9%.

As to `CN(C)CCCN1C(=O)C2CCc3[nH]c4ccccc4c3C2C1=O` (stereo unspecified), the cell number change was 0.304%. The AC50 under setting [2] was 29.1 µM [rising, single point].

For the compound `COc1ccccc1Nc1nc2ccc(C)cc2n2cnnc12`, the cell number change was -12%. Moreover, under setting [1], the AC50 was 0.82 µM [rising, full curve, poor fit]. Also, the AC50 under setting [2] was 5.17 µM [falling, single point].

`COC(=O)CNC(c1ccccc1)c1cc(C)ccc1NC(=O)c1cccc(Cl)c1` (stereo unspecified): the cell number change was 41.4%. Further, the half-maximal activity concentration (AC50) under setting [1] was 5.8 µM [rising, partial curve]. Further, under setting [2], the AC50 is 0.82 µM [rising, full curve].

Turning to `CCCn1c(O)c(/C=C2\C=NN=C2c2ccccc2)sc1=S`, the cell number change was -36.4%. Further, the AC50 under setting [2] is 29.1 µM [falling, single point].

For the compound `CCCOc1ccccc1C1CC(=O)Nc2cc3c(cc21)OCCO3` (stereo unspecified), the cell number change is -39.3%. Also, the AC50 under setting [1] was 16.4 µM [falling, partial curve, poor fit]. In addition, under setting [2], the AC50 is 23.1 µM [falling, partial curve].

For `O=[N+]([O-])c1ccccc1N/N=C\c1ccccc1F`, the cell number change was -36.2%. The AC50 under setting [1] is 9.2 µM [falling, partial curve]. Also, under setting [2], the AC50 is 7.31 µM [falling, partial curve].

Consider `COc1cccc(OC)c1C(=O)Nc1nc2ccc([N+](=O)[O-])cc2s1`, for which the cell number change turned out to be 8.97%. In addition, under setting [1], the AC50 was 6.51 µM [falling, single point]. The AC50 under setting [2] is 6.51 µM [falling, single point].

`Cn1c(SCC#N)nc2ccccc2c1=O`: the cell number change was determined as 27.7%. The AC50 under setting [2] was 29.1 µM [rising, single point].

For the compound `Cc1cc(C)c2oc(C(=O)NCc3ccccc3)cc(=O)c2c1`, the cell number change is 21.7%. For the same compound, the AC50 under setting [2] is 13 µM [falling, partial curve].

`Cc1cc(OCC(=O)Nc2ccncc2)cc(C)c1Br`: the cell number change is -52%. Moreover, the AC50 under setting [1] is 16.4 µM [falling, partial curve]. In addition, under setting [2], the AC50 is 18.4 µM [falling, single point].

Turning to `C=CCNC(=O)CC1C(=O)NCCN1Cc1ccc(-c2ccccc2)cc1` (stereo unspecified), the cell number change is -39%. Further, the AC50 under setting [1] is 0.517 µM [falling, full curve]. The AC50 under setting [2] is 0.517 µM [falling, full curve].

Take `Cc1ccc(S(=O)(=O)N2CCOCC2)cc1C(=O)N(C)CCOc1ccc(Cl)cc1`: the cell number change was -10.4%.

In the case of `COc1cccc(Nc2nnc(Cc3cccnc3)c3ccccc23)c1`, the cell number change is -13.4%. Moreover, the AC50 under setting [2] was 29.1 µM [falling, single point].

Regarding `CC1Cc2ccccc2N1CC(=O)NCc1ccccc1Cl` (stereo unspecified), the cell number change worked out at 9.94%. Besides, the AC50 under setting [2] is 16.4 µM [rising, single point].

Consider `Cn1c(=O)c(-c2ccccc2N)nc2ccccc21`, for which the AC50 was 0.366 µM [rising, full curve] under setting [1] and 0.231 µM [rising, full curve, poor fit] under setting [2].

As for `Cc1ccc(S(=O)(=O)N2C=CC(C(F)(F)F)=NCC2)cc1`, the cell number change is 14.4%.

Regarding `COC(=O)C(C)NC(=O)c1ccc(C(C)(C)C)cc1` (stereo unspecified), the cell number change is -4.79%.

With `O=C(Nc1ccccc1)c1ccncc1`, the cell number change was -2.65%. In addition, the AC50 under setting [2] was 2.06 µM [falling, partial curve].

`CCOc1ccccc1NC(=O)CSc1nc(=O)n(Cc2ccccn2)c2c1CCC2`: the cell number change was determined as 54.2%. Also, the AC50 under setting [1] is 9.2 µM [rising, partial curve].

As to `Clc1ccc(C2=C3CCCCn4c(-c5ccccc5)c[n+](c43)C2)cc1`, the cell number change was -13.1%. Besides, the AC50 under setting [2] is 23.1 µM [falling, partial curve, poor fit].

On to `COc1cccc2c3c(c(C)nc12)CCN3c1ccccc1`, for which the cell number change came out at 9.85%.

Take `Cc1ccc(NC(=O)CN(C)CC(=O)Nc2cccc(F)c2)cc1S(=O)(=O)N1CCCCCC1`: the AC50 under setting [1] is 0.092 µM [falling, single point].

With `Cc1c(CCC(=O)N[C@@H](CC(C)C)C(=O)O)c(=O)oc2cc3oc4c(c3cc12)CCCC4`, the cell number change was 33.1%. The AC50 under setting [1] is 5.17 µM [rising, partial curve]. Further, the concentration at half-maximal activity (AC50) under setting [2] is 0.58 µM [rising, partial curve, poor fit].

Take `Cc1cc(C(=O)CSc2ncccn2)c(C)n1-c1cccc(F)c1`: the cell number change is -72.5%. For the same compound, under setting [1], the AC50 was 18.4 µM [falling, partial curve, poor fit]. The AC50 under setting [2] is 16.4 µM [rising, partial curve].

Consider `COc1ccc(NC(=O)N2CCCC(C(=O)NCCc3ccccc3)C2)cc1` (stereo unspecified), for which the cell number change was determined as 8.12%. Further, under setting [2], the AC50 was 29.1 µM [rising, single point].

(Values after PubChem BioAssay AID2685 (National Center for Advancing Translational Sciences (NCATS), 2010).)
